Data: paper PMC7729032, “Interaction interface in the C-terminal parts of centriole proteins Sas6 and Ana2” (Open Biology, 2020)

T1: MBP-Sas6 wild-type (Drosophila, UniProt Q9VAC8 1-472)
T1 construct: Sas6, Drosophila, wild type; MBP from destination vector pKM596 (Gateway); No cleavage of MBP is described; also called Sas6-wt; source: E. coli Rosetta(DE3); in lysate (pull-down); purified on amylose resin and SEC (SEC, HDX-MS)
T1 sequence (looked up): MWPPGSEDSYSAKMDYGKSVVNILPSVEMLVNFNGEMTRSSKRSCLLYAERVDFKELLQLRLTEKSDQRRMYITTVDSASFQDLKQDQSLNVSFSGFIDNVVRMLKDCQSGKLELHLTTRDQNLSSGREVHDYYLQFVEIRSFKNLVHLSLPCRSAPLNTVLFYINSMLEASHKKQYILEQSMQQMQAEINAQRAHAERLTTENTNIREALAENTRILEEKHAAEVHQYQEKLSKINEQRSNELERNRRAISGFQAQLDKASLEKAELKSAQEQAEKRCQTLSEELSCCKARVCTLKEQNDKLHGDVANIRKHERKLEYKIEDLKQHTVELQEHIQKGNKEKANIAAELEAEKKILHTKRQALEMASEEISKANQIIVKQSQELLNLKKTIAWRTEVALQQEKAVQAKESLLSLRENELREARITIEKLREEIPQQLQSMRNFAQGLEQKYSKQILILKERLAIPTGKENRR

T2: GST-tagged Ana2-4D (phosphomimetic Ana2) (Drosophila) (UniProt Q9XZ31)
T2 sequence: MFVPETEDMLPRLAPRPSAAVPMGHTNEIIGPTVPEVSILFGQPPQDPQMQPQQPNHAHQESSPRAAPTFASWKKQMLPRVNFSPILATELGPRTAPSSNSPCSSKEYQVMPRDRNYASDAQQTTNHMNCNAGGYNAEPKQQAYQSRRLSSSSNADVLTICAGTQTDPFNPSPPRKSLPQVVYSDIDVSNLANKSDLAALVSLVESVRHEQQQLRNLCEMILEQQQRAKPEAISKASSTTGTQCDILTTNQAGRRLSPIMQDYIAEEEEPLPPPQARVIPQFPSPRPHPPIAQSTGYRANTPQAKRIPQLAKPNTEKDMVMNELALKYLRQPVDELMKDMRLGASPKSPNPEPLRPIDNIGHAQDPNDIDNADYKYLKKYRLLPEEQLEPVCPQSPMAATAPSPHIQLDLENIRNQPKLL

T3: GST-tagged Ana2 wild-type (Drosophila) (UniProt Q9XZ31)
T3 sequence: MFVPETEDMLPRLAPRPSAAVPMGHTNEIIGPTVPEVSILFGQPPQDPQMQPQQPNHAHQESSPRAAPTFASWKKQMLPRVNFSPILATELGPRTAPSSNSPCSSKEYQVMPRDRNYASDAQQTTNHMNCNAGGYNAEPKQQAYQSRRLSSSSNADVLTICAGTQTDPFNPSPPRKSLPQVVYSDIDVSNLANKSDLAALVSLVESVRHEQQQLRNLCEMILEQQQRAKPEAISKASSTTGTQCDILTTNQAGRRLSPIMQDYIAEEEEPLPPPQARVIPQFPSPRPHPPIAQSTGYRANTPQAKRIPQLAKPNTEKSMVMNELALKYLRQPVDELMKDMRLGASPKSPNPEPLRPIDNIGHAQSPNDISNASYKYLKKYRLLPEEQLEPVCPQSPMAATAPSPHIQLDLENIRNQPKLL


Experiments:
[1] = molecular target: T1, MBP-Sas6 wild-type; assay: pull-down; bait from lysate on Glutathione-Sepharose 4B, washed; lysate with MBP-tagged prey added, 1 h at 4°C; washes in 20 mM Tris–HCl pH 7.5, 250 mM NaCl, 5% glycerol, 1 mM DTT, 0.5% Triton; SDS–PAGE with PageBlue staining; only the target purified
[2] = molecular target: T2, GST-tagged Ana2-4D (phosphomimetic Ana2) (Drosophila); assay: as above
[3] = molecular target: T3, GST-tagged Ana2 wild-type (Drosophila); assay: as above
[4] = molecular target: 69 aa Ana2-4D STAN motif fragment (Drosophila); assay: HDX-MS; protein alone against SEC-purified complex; exchange in D2O buffer for 10 s, 1 or 5 min on ice; both purified
[5] = molecular target: Gorab (bait, on glutathione resin); assay: pull-down; bait from lysate on Glutathione-Sepharose 4B, washed; lysate with MBP-tagged prey added, 1 h at 4°C; washes in 20 mM Tris–HCl pH 7.5, 250 mM NaCl, 5% glycerol, 1 mM DTT, 0.5% Triton; SDS–PAGE with PageBlue staining; only the target purified

Molecule	binding [2]	binding [5]	also measured
Gorab (prey, MBP-tagged)	no binding		binding [1]: binds; binding [3]: no binding
Sas6–Gorab complex (Drosophila | not stated)	binds		
MBP-Sas6 wild-type (protein, UniProt Q9VAC8 1-472) MWPPGSEDSYSAKMDYGKSVVNILPSVEMLVNFNGEMTRSSKRSCLLYAERVDFKELLQLRLTEKSDQRRMYITTVDSASFQDLKQDQSLNVSFSGFIDNVVRMLKDCQSGKLELHLTTRDQNLSSGREVHDYYLQFVEIRSFKNLVHLSLPCRSAPLNTVLFYINSMLEASHKKQYILEQSMQQMQAEINAQRAHAERLTTENTNIREALAENTRILEEKHAAEVHQYQEKLSKINEQRSNELERNRRAISGFQAQLDKASLEKAELKSAQEQAEKRCQTLSEELSCCKARVCTLKEQNDKLHGDVANIRKHERKLEYKIEDLKQHTVELQEHIQKGNKEKANIAAELEAEKKILHTKRQALEMASEEISKANQIIVKQSQELLNLKKTIAWRTEVALQQEKAVQAKESLLSLRENELREARITIEKLREEIPQQLQSMRNFAQGLEQKYSKQILILKERLAIPTGKENRR			binding [4]: binds
MBP-Ana2-4D (natural protein, Drosophila, UniProt Q9XZ31 1-420, looked up, Ana2, Drosophila; STAN motif serines 318, 365, 370 and 373 substituted by aspartic acid; MBP from destination vector pKM596; As prey against Gorab bait the MBP tag follows from the general methods of the pull-down; also called Ana2-4D-FL; source: E. coli Rosetta(DE3); purified on amylose resin and SEC (SEC, HDX-MS); in lysate (pull-down prey)) MFVPETEDMLPRLAPRPSAAVPMGHTNEIIGPTVPEVSILFGQPPQDPQMQPQQPNHAHQESSPRAAPTFASWKKQMLPRVNFSPILATELGPRTAPSSNSPCSSKEYQVMPRDRNYASDAQQTTNHMNCNAGGYNAEPKQQAYQSRRLSSSSNADVLTICAGTQTDPFNPSPPRKSLPQVVYSDIDVSNLANKSDLAALVSLVESVRHEQQQLRNLCEMILEQQQRAKPEAISKASSTTGTQCDILTTNQAGRRLSPIMQDYIAEEEEPLPPPQARVIPQFPSPRPHPPIAQSTGYRANTPQAKRIPQLAKPNTEKDMVMNELALKYLRQPVDELMKDMRLGASPKSPNPEPLRPIDNIGHAQDPNDIDNADYKYLKKYRLLPEEQLEPVCPQSPMAATAPSPHIQLDLENIRNQPKLL		no binding	
Ana2-wt (prey, MBP-tagged) (protein, UniProt Q9XZ31 1-420) MFVPETEDMLPRLAPRPSAAVPMGHTNEIIGPTVPEVSILFGQPPQDPQMQPQQPNHAHQESSPRAAPTFASWKKQMLPRVNFSPILATELGPRTAPSSNSPCSSKEYQVMPRDRNYASDAQQTTNHMNCNAGGYNAEPKQQAYQSRRLSSSSNADVLTICAGTQTDPFNPSPPRKSLPQVVYSDIDVSNLANKSDLAALVSLVESVRHEQQQLRNLCEMILEQQQRAKPEAISKASSTTGTQCDILTTNQAGRRLSPIMQDYIAEEEEPLPPPQARVIPQFPSPRPHPPIAQSTGYRANTPQAKRIPQLAKPNTEKSMVMNELALKYLRQPVDELMKDMRLGASPKSPNPEPLRPIDNIGHAQSPNDISNASYKYLKKYRLLPEEQLEPVCPQSPMAATAPSPHIQLDLENIRNQPKLL		no binding	

No constants are given. Whether binding was seen depends on the method and setting. For some of these results: A result given as binding can be weak or reduced; the word gives no strength. Tags and fused reporters may be left off the sequences shown. For some of these results: In cells and extracts the contact can be indirect.
